Measured values from the supplement of paper PMC11006884.
The list shows a part of the results, in another mix than the full data.

compound: COC(=O)C#Cc1ccccc1 [methyl 3-phenylpropiolate]; assay: log2 ratio of iodoacetamide-alkyne labeling of the cysteine site, DMSO over compound (competition); higher = stronger covalent engagement of the cysteine by the compound, active = 1 or more; details: 500 µM; treatment time 1 h; system: HEK293T cell lysate
Method in brief: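 After 1 h at ambient temperature with vehicle or electrophile (500 µM), HEK293T lysate (2 mg/mL) was labelled for 1 h with iodoacetamide alkyne and clicked to sCIP-TMT reagents. Pooled samples were trypsin-digested overnight at 37 °C, streptavidin-enriched, acid-eluted and analysed by Orbitrap Eclipse LC-MS/MS with FAIMS, then quantified in FragPipe over three replicates with duplicate channels. A cysteine's log2 competition ratio is its mean control-channel over mean compound-channel reporter intensity. Cysteines quantified in only one replicate were not included.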

Target | log2 ratio of iodoacetamide-alkyne labeling
SPEN C3632 (UniProt Q96T58) | inactive: 0.433
DDX50 C633 (UniProt Q9BQ39) | inactive: -0.0901
RPRD1A C151 (UniProt Q96P16) | inactive: 0.458
PBK C22 (UniProt Q96KB5) | inactive: 0.282
UniProt Q99590_C506 | inactive: -0.154
UniProt Q99590_C566 | inactive: 0.15
RANBP9 C610 (UniProt Q96S59) | inactive: 0.53
SPAG5 C589 (UniProt Q96R06) | inactive: 0.273
CRBN C441 (UniProt Q96SW2) | inactive: 0.0886
DNAJC7 C317 (UniProt Q99615) | inactive: -0.15
CRBN C188 (UniProt Q96SW2) | inactive: 0.148
TTC1 C8 (UniProt Q99614) | inactive: 0.0638
EHMT2 C866 (UniProt Q96KQ7) | inactive: -0.0266
POP1 C530 (UniProt Q99575) | inactive: 0.164
RBM15 C785 (UniProt Q96T37) | inactive: 0.33
TTC1 C28 (UniProt Q99614) | inactive: 0.272
ADO C258 (UniProt Q96SZ5) | inactive: 0.15
UniProt Q99683_C928 | inactive: 0.343
FNBP1 C609 (UniProt Q96RU3) | inactive: -0.0223

Fetched one by one from above:
Target | log2 ratio of iodoacetamide-alkyne labeling
SPAG5 C589 (UniProt Q96R06) | inactive: 0.273
UniProt Q99590_C566 | inactive: 0.15

(cont.)

Target | log2 ratio of iodoacetamide-alkyne labeling
PLEKHF1 C21 (UniProt Q96S99) | inactive: 0.153
SPEN C1066 (UniProt Q96T58) | inactive: 0.234
WRNIP1 C39 (UniProt Q96S55) | inactive: -0.0706
ZNF48 C288 (UniProt Q96MX3) | inactive: 0.989
USP28 C203 (UniProt Q96RU2) | inactive: 0.234
ITCH C57 (UniProt Q96J02) | inactive: 0.127
PARK7 C46 (UniProt Q99497) | inactive: 0.0846
WRNIP1 C272 (UniProt Q96S55) | inactive: 0.116
ZFR C525 (UniProt Q96KR1) | inactive: 0.266
MYBBP1A C623 (UniProt Q9BQG0) | inactive: 0.231
VRK1 C50 (UniProt Q99986) | inactive: 0.344
RPRD1A C220 (UniProt Q96P16) | inactive: 0.342
ZNF512 C540 (UniProt Q96ME7) | inactive: 0.328
TUBA1C C347 (UniProt Q9BQE3) | inactive: 0.49
ARAP1 C900 (UniProt Q96P48) | inactive: 0.272
YME1L1 C433 (UniProt Q96TA2) | inactive: -0.0482
TCF25 C216 (UniProt Q9BQ70) | inactive: 0.479
UniProt Q99590_C478 | inactive: 0.396
